According to PMC3281842, “Crystal Structure of TDRD3 and Methyl-Arginine Binding Characterization of TDRD3, SMN and SPF30” (PLoS ONE, 2012):
Results are given in words; binding and its absence hold for the method and conditions named. For some of these results: Tags and fused reporters may be left off the sequences shown.

The chains behind the UniProt entries cited, without tags or fusion partners. Residues count along the entry.
UniProt Q9H7E2, residues 520-633: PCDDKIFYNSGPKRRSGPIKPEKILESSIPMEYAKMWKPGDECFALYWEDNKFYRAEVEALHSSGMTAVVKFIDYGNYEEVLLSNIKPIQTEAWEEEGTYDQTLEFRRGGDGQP
UniProt Q16637, residues 80-170: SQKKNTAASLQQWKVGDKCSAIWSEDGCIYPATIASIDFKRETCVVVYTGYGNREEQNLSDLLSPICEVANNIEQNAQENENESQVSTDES

Assays:
H4R3me2a = target: T1, H4R3me2a; assay: ITC; 20 mM Tris pH 8.0, 200 mM NaCl; 25°C; one-site binding model; both purified
T1 sequence (peptide, asymmetric dimethylarginine at R3): SGRGKGGK

Histone H3K4me1 = target: T2, Histone H3K4me1; assay: fluorescence polarisation; fluorescein-labeled peptides; 20 mM Tris pH 7.5, 50 mM NaCl, 1 mM DTT, 0.01% Triton X-100; 25°C; one-site binding model; Kd the average of three independent measurements; both purified
T2 sequence (peptide, monomethyllysine at K4; fluorescein label (position not stated)): ARTKQTARKST

Histone H3K4me2 = target: T3, Histone H3K4me2; assay: as above
T3 sequence (peptide, dimethyllysine at K4; fluorescein label (position not stated)): ARTKQTARKST

Histone H3K4me3 = target: T4, Histone H3K4me3; assay: as above
T4 sequence (peptide, trimethyllysine at K4; fluorescein label (position not stated)): ARTKQTARKST

Histone H3K9me1 = target: T5, Histone H3K9me1; assay: as above
T5 sequence (peptide, monomethyllysine at K9; fluorescein label (position not stated)): ARTKQTARKSTGGKA

Histone H3K9me2 = target: T6, Histone H3K9me2; assay: as above
T6 sequence (peptide, dimethyllysine at K9; fluorescein label (position not stated)): ARTKQTARKSTGGKA

Histone H3K9me3 = target: T7, Histone H3K9me3; assay: as above
T7 sequence (peptide, trimethyllysine at K9; fluorescein label (position not stated)): ARTKQTARKSTGGKA

Measured: binding

TDRD3 (aa 520–633) (from UniProt Q9H7E2 520-633) (domain or fragment)
no binding: all assays above

SMN (aa 80–170) (from UniProt Q16637 80-170) (domain or fragment)
not listed: H4R3me2a
no binding: all other assays above
